The list shows a part of the results.
Tests used:
Experiment in all cases: log2 fold change, soluble protein after heating vs DMSO (PISA); higher = thermal stabilisation; K562 lysate, 10 uM; active = over 0.2 and 3.5 SD of the protein, either way, in both replicates (recomputed)
erlotinib = compound: C#Cc1cccc(Nc2ncnc3cc(OCCOC)c(OCCOC)cc23)c1 [erlotinib]
Method in brief: (§1)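 A 30 min treatment with 10 μM compound was applied to crude K562 extract at 1 mg/mL protein in PBS pH 7.4 with 1 mM MgCl2. Heating for 3 min spanned 48°C-58°C, after which aliquots were pooled, adjusted to 0.5% NP-40 at 4°C and spun at 21,000xg for 90 min. TMTpro 16plex LC-MS/MS of the supernatant, with channel sums equalised, gave values recorded as log-two fold change in thermal stability against solvent controls, from duplicates.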

By UniProt entry, the sequences of proteins in these tests, tags left out. Where a name states a change or a piece, a line headed by the entry shows the natural chain unless it says otherwise.
UniProt Q96DF8: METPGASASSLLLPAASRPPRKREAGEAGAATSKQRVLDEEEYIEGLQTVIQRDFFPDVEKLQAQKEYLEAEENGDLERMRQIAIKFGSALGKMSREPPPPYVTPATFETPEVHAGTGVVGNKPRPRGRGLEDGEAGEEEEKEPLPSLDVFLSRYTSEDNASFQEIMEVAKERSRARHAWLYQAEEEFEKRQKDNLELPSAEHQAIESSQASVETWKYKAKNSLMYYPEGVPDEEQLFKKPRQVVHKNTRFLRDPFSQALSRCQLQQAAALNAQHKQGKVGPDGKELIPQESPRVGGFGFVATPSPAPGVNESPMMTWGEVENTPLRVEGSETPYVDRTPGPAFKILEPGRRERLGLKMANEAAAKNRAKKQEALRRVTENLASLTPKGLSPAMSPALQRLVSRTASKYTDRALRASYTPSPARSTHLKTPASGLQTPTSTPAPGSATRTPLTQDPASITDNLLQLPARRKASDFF
UniProt Q9NV70: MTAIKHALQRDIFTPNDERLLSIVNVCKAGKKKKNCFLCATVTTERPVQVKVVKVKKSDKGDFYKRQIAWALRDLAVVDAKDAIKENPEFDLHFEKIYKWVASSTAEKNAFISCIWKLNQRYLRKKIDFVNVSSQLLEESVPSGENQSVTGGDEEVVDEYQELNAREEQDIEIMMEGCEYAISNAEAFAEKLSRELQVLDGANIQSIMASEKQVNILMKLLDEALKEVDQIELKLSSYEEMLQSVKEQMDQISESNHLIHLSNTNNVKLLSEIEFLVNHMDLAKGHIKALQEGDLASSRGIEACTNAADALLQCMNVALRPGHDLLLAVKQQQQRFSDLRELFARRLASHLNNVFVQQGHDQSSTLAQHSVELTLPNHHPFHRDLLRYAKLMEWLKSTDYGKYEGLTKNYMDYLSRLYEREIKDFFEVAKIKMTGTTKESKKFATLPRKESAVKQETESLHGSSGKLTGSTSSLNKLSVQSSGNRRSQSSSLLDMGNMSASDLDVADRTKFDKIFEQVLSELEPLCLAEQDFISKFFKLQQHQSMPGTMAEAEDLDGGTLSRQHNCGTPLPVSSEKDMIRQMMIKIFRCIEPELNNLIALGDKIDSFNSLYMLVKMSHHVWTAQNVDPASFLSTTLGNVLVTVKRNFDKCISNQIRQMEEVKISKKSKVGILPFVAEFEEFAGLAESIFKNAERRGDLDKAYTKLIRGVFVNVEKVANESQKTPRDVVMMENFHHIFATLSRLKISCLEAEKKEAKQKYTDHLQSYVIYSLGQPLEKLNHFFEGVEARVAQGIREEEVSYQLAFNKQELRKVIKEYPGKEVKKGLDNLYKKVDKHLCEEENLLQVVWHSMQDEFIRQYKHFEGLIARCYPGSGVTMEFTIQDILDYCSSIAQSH
UniProt Q92520: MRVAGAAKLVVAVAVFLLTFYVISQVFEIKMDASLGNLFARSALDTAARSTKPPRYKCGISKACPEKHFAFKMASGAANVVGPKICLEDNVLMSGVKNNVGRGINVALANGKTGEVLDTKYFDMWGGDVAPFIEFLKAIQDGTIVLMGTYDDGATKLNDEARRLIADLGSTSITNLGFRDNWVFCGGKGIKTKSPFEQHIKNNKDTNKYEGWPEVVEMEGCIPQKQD
UniProt O00471: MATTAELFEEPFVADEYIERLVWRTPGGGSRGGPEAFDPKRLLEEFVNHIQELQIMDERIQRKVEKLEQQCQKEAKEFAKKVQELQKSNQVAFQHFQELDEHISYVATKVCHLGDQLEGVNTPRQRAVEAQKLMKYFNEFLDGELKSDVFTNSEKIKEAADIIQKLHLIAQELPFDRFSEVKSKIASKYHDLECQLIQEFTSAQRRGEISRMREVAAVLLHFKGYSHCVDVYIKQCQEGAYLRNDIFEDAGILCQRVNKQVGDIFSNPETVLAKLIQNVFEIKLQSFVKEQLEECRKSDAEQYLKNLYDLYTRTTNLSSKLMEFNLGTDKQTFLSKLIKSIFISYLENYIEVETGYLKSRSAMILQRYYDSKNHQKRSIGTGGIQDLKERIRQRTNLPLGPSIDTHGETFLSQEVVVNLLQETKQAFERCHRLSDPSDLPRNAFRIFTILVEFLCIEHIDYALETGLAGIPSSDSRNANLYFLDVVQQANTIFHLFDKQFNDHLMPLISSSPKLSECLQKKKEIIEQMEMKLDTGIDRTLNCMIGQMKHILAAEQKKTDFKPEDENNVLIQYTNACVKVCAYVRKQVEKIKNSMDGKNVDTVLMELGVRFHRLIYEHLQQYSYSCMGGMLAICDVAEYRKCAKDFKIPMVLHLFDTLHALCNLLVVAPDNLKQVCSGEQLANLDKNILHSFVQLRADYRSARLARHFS
UniProt Q96B26, whole entry, looked up: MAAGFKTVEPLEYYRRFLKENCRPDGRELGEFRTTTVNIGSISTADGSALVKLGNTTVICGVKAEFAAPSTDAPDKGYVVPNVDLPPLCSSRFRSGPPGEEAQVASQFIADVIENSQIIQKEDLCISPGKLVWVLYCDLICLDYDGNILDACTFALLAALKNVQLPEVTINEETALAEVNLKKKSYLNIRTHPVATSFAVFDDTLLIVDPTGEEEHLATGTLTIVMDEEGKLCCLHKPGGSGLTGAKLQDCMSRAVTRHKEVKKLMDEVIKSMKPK
UniProt O60645: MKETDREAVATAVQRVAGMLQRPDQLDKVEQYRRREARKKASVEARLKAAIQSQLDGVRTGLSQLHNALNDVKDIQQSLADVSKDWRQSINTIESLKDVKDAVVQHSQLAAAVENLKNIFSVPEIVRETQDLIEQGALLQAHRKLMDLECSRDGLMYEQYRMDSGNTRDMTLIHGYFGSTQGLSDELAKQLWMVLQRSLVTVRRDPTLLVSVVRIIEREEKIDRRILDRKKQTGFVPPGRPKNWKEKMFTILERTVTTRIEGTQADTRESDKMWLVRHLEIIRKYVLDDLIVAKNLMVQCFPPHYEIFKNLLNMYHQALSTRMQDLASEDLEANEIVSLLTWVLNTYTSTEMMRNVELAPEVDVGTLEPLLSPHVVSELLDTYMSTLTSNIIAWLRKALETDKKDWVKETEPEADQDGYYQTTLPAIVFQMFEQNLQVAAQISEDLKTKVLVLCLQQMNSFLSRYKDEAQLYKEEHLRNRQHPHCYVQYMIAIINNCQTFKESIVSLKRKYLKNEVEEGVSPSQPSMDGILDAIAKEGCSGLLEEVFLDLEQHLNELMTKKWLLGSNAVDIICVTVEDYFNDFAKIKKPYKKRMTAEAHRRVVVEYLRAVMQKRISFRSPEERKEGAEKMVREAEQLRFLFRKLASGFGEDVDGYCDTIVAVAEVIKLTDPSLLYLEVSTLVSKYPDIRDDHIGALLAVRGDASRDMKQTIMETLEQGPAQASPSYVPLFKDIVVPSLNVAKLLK
UniProt Q9H501: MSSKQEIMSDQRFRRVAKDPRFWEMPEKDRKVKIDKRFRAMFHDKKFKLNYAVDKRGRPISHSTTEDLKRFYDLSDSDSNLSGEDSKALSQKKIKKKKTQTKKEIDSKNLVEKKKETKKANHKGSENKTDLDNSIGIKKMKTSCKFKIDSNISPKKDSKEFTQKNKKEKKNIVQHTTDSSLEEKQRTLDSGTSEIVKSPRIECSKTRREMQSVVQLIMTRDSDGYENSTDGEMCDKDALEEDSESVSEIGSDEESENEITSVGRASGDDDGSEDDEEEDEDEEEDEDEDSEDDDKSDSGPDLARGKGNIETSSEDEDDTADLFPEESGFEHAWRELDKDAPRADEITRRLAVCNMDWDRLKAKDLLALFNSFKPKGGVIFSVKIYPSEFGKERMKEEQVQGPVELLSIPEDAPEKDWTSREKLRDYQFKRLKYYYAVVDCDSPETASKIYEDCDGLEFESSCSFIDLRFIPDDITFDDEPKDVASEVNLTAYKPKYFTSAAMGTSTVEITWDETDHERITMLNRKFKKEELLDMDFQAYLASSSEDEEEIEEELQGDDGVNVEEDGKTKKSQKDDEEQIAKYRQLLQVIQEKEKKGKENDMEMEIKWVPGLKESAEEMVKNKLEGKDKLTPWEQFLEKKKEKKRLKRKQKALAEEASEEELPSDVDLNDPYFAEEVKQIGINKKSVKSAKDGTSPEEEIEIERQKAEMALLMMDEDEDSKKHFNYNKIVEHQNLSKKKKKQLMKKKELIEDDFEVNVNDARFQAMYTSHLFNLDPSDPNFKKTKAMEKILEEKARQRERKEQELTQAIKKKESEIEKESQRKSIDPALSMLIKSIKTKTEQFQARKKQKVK
UniProt Q86X53: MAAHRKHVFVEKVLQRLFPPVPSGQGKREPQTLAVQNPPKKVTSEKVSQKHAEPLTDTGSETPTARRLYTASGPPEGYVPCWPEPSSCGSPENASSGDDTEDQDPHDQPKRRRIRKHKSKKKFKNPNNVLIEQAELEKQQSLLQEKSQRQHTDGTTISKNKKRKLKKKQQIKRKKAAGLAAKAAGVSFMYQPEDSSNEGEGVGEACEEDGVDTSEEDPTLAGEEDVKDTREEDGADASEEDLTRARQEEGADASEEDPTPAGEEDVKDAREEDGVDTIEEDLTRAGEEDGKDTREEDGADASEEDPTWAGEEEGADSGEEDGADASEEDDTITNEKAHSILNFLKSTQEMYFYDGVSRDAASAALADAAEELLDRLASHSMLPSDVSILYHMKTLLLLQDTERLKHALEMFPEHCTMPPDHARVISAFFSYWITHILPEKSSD
UniProt Q86UY5: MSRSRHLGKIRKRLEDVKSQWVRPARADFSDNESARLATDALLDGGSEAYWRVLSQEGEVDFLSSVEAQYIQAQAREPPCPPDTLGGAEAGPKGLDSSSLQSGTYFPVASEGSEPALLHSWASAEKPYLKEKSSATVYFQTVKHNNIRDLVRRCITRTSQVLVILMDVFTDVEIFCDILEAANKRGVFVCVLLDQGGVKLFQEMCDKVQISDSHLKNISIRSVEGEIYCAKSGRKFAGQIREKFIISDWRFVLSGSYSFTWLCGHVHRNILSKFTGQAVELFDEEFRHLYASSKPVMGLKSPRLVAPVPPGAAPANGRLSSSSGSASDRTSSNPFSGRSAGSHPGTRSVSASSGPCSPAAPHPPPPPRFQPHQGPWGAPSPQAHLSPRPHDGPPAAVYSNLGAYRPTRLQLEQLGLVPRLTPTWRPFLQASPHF
UniProt Q8TAV0: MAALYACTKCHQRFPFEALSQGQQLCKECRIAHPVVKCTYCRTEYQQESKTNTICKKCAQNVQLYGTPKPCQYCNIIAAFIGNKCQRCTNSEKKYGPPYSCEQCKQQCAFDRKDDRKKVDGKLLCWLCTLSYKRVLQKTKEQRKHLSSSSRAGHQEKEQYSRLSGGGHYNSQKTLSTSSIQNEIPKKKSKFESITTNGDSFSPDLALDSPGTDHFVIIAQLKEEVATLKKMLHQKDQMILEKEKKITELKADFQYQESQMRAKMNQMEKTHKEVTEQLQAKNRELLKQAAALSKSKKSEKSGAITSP
UniProt O75477: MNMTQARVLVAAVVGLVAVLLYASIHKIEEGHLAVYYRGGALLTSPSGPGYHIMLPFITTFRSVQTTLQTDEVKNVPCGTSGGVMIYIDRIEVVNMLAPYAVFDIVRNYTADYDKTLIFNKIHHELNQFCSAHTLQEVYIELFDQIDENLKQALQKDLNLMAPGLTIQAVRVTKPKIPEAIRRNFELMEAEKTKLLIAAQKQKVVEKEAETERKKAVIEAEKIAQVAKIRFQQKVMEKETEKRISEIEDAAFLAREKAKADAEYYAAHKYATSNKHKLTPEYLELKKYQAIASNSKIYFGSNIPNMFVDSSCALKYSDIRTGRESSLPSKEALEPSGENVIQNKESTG
UniProt Q96E09: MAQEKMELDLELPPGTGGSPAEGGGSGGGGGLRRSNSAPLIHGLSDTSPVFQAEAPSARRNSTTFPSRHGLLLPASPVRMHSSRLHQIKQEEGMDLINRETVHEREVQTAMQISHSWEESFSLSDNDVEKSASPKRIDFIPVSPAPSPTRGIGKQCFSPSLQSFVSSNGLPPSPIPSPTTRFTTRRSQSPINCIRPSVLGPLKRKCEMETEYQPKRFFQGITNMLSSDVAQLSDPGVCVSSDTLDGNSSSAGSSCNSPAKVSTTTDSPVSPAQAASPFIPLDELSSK
UniProt Q5RKV6, whole entry, looked up: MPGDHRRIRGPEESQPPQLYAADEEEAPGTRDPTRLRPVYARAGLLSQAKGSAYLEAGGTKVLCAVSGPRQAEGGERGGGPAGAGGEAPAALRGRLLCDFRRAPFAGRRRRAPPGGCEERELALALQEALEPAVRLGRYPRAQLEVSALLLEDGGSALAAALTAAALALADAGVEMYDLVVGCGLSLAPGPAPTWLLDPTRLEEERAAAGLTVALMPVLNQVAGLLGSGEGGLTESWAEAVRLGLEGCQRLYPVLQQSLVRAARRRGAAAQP

[1] = compound: C/C(=N\NC(=O)C1=CC(=CC=C1)S(=O)(=O)N2CCOCC2)/C3=C(C=CC(=C3)Cl)O
Method in brief: as §1

[2] = compound: C1=CC(=CC=C1C2=NC3=C(N2)C=C(C=C3)C(=O)N)OC4=CC=C(C=C4)Cl
Method in brief: as §1

[3] = compound: C1=CC2=C(C=CC(=C2)/C=C\3/C(=O)NC(=NCC4=CC=CS4)S3)N=C1
Method in brief: as §1

[4] = compound: C1=CC2=NC=CN=C2C=C1/C=C/3\C(=O)NC(=O)S3
Method in brief: as §1

[5] = compound: C1=CC=C(C=C1)C2=NC(=C(N2)C3=CC=NC=C3)C4=CC(=C(C=C4)Cl)O
Method in brief: as §1

[6] = compound: C1=CC=C2C(=C1)C3=NNC4=CC=CC(=C43)C2=O
Method in brief: as §1

[7] = compound: C1CCN(C1)C(=O)NC2=CC=CC(=C2)NC3=NC=C(C(=N3)NCCC4=CN=CN4)Br
Method in brief: as §1

[8] = compound: C1CN(CCC1(CC2=CC=C(C=C2)Cl)N)C3=NC=NC4=C3C=CN4
Method in brief: as §1

IRAK-1-4 Inhibitor I = compound: C1COCCN1CCN2C3=CC=CC=C3N=C2NC(=O)C4=CC(=CC=C4)[N+](=O)[O-] [IRAK-1-4 Inhibitor I]
Method in brief: as §1

ibrutinib = compound: C=CC(=O)N1CCC[C@@H](n2nc(-c3ccc(Oc4ccccc4)cc3)c3c(N)ncnc32)C1 [ibrutinib]
Method in brief: as §1

[9] = compound: CC(=O)c1cnc2ccc(-c3cc(Cl)c(O)c(Cl)c3)nc2c1N[C@H]1CC[C@H](CN(C)C)CC1
Method in brief: as §1

ralimetinib = compound: CC(C)(C)Cn1c(N)nc2ccc(-c3[nH]c(C(C)(C)C)nc3-c3ccc(F)cc3)nc21 [ralimetinib]
Method in brief: as §1

[10] = compound: CC(C)(O)CC(=O)NCCn1ccc2ncnc(Nc3ccc(Oc4cccc(C(F)(F)F)c4)c(Cl)c3)c21
Method in brief: as §1

[11] = compound: CC(C)C1=C2N=C(C=C(N2N=C1)NCC3=CC=CC=C3)NCCCCCCN
Method in brief: as §1

[12] = compound: CC1=C(C(CC(=O)N1)C2=CC=C(C=C2)C(F)(F)F)C(=O)NC3=C(C=C4C(=C3)C=NN4)F
Method in brief: as §1

[13] = compound: CC1=C(C2=C(C=C1)C(=O)C3=CC=CC=C3N2CCCN)C
Method in brief: as §1

[14] = compound: CC1=C(C=C(C=C1)NC(=O)C2=CC(=CC=C2)C(C)(C)C#N)NC3=CC4=C(C=C3)N=CN(C4=O)C
Method in brief: as §1

[15] = compound: CC1=C(C=C(C=C1)NC(=O)C2=CC(=CC=C2)N(C)C)NC(=O)C3=CC=C(C=C3)O
Method in brief: as §1

[16] = compound: CC1=CC=C(C=C1)SC2=C3C=C(SC3=CN=C2)C(=O)N
Method in brief: as §1

Measured: log2 fold change

ETFA (UniProt P13804)
inactive: erlotinib -0.001 | [1] 0.051 | [2] -0.043 | [3] -0.034 | [4] 0.02 | [5] -0.012 | [6] 0.01 | [7] -0.005 | [8] 0.009 | IRAK-1-4 Inhibitor I -0.024 | ibrutinib 0.007 | [9] 0.013 | ralimetinib -0.009 | [10] 0.01 | [11] -0.017 | [12] -0.021 | [13] -0.012 | [14] 0.018 | [15] -0.019 | [16] 0.019

ESS2 (UniProt Q96DF8)
inactive: erlotinib 0.008 | [1] -0.044 | [2] 0.061 | [3] 0.024 | [4] -0.017 | [5] 0.024 | [6] -0.047 | [7] -0.051 | [8] -0.006 | IRAK-1-4 Inhibitor I 0.014 | ibrutinib -0.009 | [9] -0.012 | ralimetinib -0.008 | [10] -0.015 | [11] -0.016 | [12] 0.048 | [13] -0.008 | [14] 0.124 | [15] -0.04 | [16] 0

EXOC1 (UniProt Q9NV70)
inactive: erlotinib 0.05 | [1] -0.005 | [2] -0.047 | [3] -0.009 | [4] 0.074 | [5] -0.035 | [6] -0.043 | [7] 0.014 | [8] -0.016 | IRAK-1-4 Inhibitor I -0.011 | ibrutinib -0.043 | [9] 0.012 | ralimetinib 0.04 | [10] -0.004 | [11] -0.023 | [12] -0.022 | [13] 0.016 | [14] -0.026 | [15] 0.032 | [16] -0.011

FAM3C (UniProt Q92520)
inactive: erlotinib -0.018 | [1] -0.039 | [2] -0.02 | [3] 0.055 | [4] -0.041 | [5] 0.015 | [6] -0.067 | [7] -0.018 | [8] 0.016 | IRAK-1-4 Inhibitor I 0.008 | ibrutinib 0.013 | [9] 0.001 | ralimetinib 0.008 | [10] -0.026 | [11] 0.036 | [12] 0 | [13] 0.019 | [14] 0.008 | [15] -0.082 | [16] -0.019

EXOC5 (UniProt O00471)
inactive: erlotinib 0.022 | [1] -0.021 | [2] -0.041 | [3] 0.033 | [4] -0.006 | [5] -0.013 | [6] -0.016 | [7] 0.005 | [8] 0.006 | IRAK-1-4 Inhibitor I -0.011 | ibrutinib -0.015 | [9] 0.012 | ralimetinib 0.04 | [10] -0.003 | [11] -0.016 | [12] 0.008 | [13] 0.003 | [14] -0.024 | [15] 0.041 | [16] -0.013

EXOSC8 (UniProt Q96B26)
inactive: erlotinib 0 | [1] -0.015 | [2] 0.014 | [3] 0.023 | [4] 0.011 | [5] 0.002 | [6] 0.095 | [7] -0.008 | [8] -0.009 | IRAK-1-4 Inhibitor I -0.02 | ibrutinib -0.038 | [9] -0.005 | ralimetinib 0.035 | [10] -0.02 | [11] 0.008 | [12] -0.036 | [13] 0.006 | [14] 0.05 | [15] 0.021 | [16] -0.02

EXOC3 (UniProt O60645)
inactive: erlotinib 0.033 | [1] 0.027 | [2] 0.006 | [3] 0.033 | [4] 0.039 | [5] 0.011 | [6] -0.04 | [7] 0.018 | [8] -0.001 | IRAK-1-4 Inhibitor I 0.013 | ibrutinib -0.029 | [9] -0.012 | ralimetinib 0.025 | [10] 0.048 | [11] 0.025 | [12] 0 | [13] -0.042 | [14] 0.037 | [15] 0.067 | [16] 0.004

ESF1 (UniProt Q9H501)
inactive: erlotinib -0.007 | [1] -0.094 | [2] -0.002 | [3] -0.01 | [4] -0.041 | [5] 0.068 | [6] 0.04 | [7] 0.025 | [8] 0.018 | IRAK-1-4 Inhibitor I -0.008 | ibrutinib 0.043 | [9] -0.015 | ralimetinib 0.003 | [10] 0.038 | [11] -0.007 | [12] 0.01 | [13] -0.028 | [14] 0.02 | [15] -0.029 | [16] 0.028

ERICH1 (UniProt Q86X53)
inactive: erlotinib 0.094 | [1] -0.017 | [2] 0.125 | [3] -0.062 | [4] -0.254 | [5] 0.011 | [6] -0.339 | [7] 0.036 | [8] 0.054 | IRAK-1-4 Inhibitor I 0.084 | ibrutinib 0.219 | [9] -0.026 | ralimetinib 0.02 | [10] 0.022 | [11] 0.047 | [12] 0.057 | [13] -0.068 | [14] 0.012 | [15] -0.038 | [16] 0.001

FAM83A (UniProt Q86UY5)
inactive: erlotinib 0 | [1] 0.168 | [2] 0.097 | [3] 0.038 | [4] -0.054 | [5] -0.107 | [6] -0.031 | [7] -0.062 | [8] 0.008 | IRAK-1-4 Inhibitor I 0.019 | ibrutinib 0.125 | [9] 0.006 | ralimetinib 0.008 | [10] 0.053 | [11] -0.06 | [12] 0.018 | [13] 0.023 | [14] 0.035 | [15] -0.023 | [16] 0.026

FAM76A isoform 3 (UniProt Q8TAV0)
inactive: erlotinib 0.043 | [1] -0.077 | [2] -0.011 | [3] -0.068 | [4] -0.09 | [5] -0.059 | [6] 0.041 | [7] 0.021 | [8] -0.008 | IRAK-1-4 Inhibitor I 0.013 | ibrutinib 0.119 | [9] 0.005 | ralimetinib 0.006 | [10] -0.153 | [11] -0.115 | [12] -0.033 | [13] -0.05 | [14] 0.061 | [15] 0 | [16] 0.023

ESYT2 (UniProt H7BXI1)
inactive: erlotinib -0.056 | [1] 0.037 | [2] -0.017 | [3] 0.042 | [4] -0.025 | [5] -0.022 | [6] -0.076 | [7] -0.005 | [8] -0.008 | IRAK-1-4 Inhibitor I 0.019 | ibrutinib 0.035 | [9] -0.022 | ralimetinib 0.003 | [10] -0.039 | [11] -0.04 | [12] 0.046 | [13] 0.05 | [14] 0.015 | [15] -0.025 | [16] -0.044

ERLIN1 (UniProt O75477)
inactive: erlotinib -0.031 | [1] 0.123 | [2] -0.17 | [3] 0.072 | [4] -0.038 | [5] 0.015 | [6] -0.02 | [7] -0.015 | [8] -0.046 | IRAK-1-4 Inhibitor I -0.071 | ibrutinib 0.005 | [9] 0.034 | ralimetinib -0.011 | [10] 0.038 | [11] -0.007 | [12] 0.044 | [13] 0.005 | [14] -0.052 | [15] -0.008 | [16] 0.012

ERVK3-1, A0A0U1RQV1
inactive: erlotinib 0.001 | [1] -0.053 | [2] 0.019 | [3] 0.008 | [4] -0.013 | [5] -0.01 | [6] -0.031 | [7] 0.083 | [8] 0.064 | IRAK-1-4 Inhibitor I 0.041 | ibrutinib 0.117 | [9] -0.026 | ralimetinib 0.09 | [10] -0.038 | [11] 0.015 | [12] -0.031 | [13] 0.006 | [14] 0.067 | [15] -0.012 | [16] -0.056

FAM122A (UniProt Q96E09)
inactive: erlotinib -0.025 | [1] -0.157 | [2] 0.076 | [3] 0.053 | [4] -0.002 | [5] -0.031 | [6] 0.099 | [7] 0 | [8] 0.036 | IRAK-1-4 Inhibitor I 0.053 | ibrutinib 0.017 | [9] -0.031 | ralimetinib -0.007 | [10] -0.009 | [11] -0.015 | [12] -0.05 | [13] -0.016 | [14] 0 | [15] 0.04 | [16] -0.034

Four successive records already listed, quoted:
FAM83A (UniProt Q86UY5)
inactive: erlotinib 0 | [1] 0.168 | [2] 0.097 | [3] 0.038 | [4] -0.054 | [5] -0.107 | [6] -0.031 | [7] -0.062 | [8] 0.008 | IRAK-1-4 Inhibitor I 0.019 | ibrutinib 0.125 | [9] 0.006 | ralimetinib 0.008 | [10] 0.053 | [11] -0.06 | [12] 0.018 | [13] 0.023 | [14] 0.035 | [15] -0.023 | [16] 0.026

FAM76A isoform 3 (UniProt Q8TAV0)
inactive: erlotinib 0.043 | [1] -0.077 | [2] -0.011 | [3] -0.068 | [4] -0.09 | [5] -0.059 | [6] 0.041 | [7] 0.021 | [8] -0.008 | IRAK-1-4 Inhibitor I 0.013 | ibrutinib 0.119 | [9] 0.005 | ralimetinib 0.006 | [10] -0.153 | [11] -0.115 | [12] -0.033 | [13] -0.05 | [14] 0.061 | [15] 0 | [16] 0.023

ESYT2 (UniProt H7BXI1)
inactive: erlotinib -0.056 | [1] 0.037 | [2] -0.017 | [3] 0.042 | [4] -0.025 | [5] -0.022 | [6] -0.076 | [7] -0.005 | [8] -0.008 | IRAK-1-4 Inhibitor I 0.019 | ibrutinib 0.035 | [9] -0.022 | ralimetinib 0.003 | [10] -0.039 | [11] -0.04 | [12] 0.046 | [13] 0.05 | [14] 0.015 | [15] -0.025 | [16] -0.044

ERLIN1 (UniProt O75477)
inactive: erlotinib -0.031 | [1] 0.123 | [2] -0.17 | [3] 0.072 | [4] -0.038 | [5] 0.015 | [6] -0.02 | [7] -0.015 | [8] -0.046 | IRAK-1-4 Inhibitor I -0.071 | ibrutinib 0.005 | [9] 0.034 | ralimetinib -0.011 | [10] 0.038 | [11] -0.007 | [12] 0.044 | [13] 0.005 | [14] -0.052 | [15] -0.008 | [16] 0.012

Later entries.

EXOSC6 (UniProt Q5RKV6)
inactive: erlotinib 0 | [1] 0.071 | [2] -0.004 | [3] -0.02 | [4] -0.013 | [5] 0.004 | [6] 0.02 | [7] 0.035 | [8] 0.004 | IRAK-1-4 Inhibitor I 0.014 | ibrutinib -0.005 | [9] 0.017 | ralimetinib -0.01 | [10] -0.024 | [11] 0.004 | [12] -0.02 | [13] -0.009 | [14] 0.03 | [15] -0.018 | [16] 0.021

— the supplement of paper PMC10849652
